# Reference: publication doi:10.1101/2025.07.15.664932
# T1: Gid1-HA (S. cerevisiae) (UniProt P53076)
# T1 sequence: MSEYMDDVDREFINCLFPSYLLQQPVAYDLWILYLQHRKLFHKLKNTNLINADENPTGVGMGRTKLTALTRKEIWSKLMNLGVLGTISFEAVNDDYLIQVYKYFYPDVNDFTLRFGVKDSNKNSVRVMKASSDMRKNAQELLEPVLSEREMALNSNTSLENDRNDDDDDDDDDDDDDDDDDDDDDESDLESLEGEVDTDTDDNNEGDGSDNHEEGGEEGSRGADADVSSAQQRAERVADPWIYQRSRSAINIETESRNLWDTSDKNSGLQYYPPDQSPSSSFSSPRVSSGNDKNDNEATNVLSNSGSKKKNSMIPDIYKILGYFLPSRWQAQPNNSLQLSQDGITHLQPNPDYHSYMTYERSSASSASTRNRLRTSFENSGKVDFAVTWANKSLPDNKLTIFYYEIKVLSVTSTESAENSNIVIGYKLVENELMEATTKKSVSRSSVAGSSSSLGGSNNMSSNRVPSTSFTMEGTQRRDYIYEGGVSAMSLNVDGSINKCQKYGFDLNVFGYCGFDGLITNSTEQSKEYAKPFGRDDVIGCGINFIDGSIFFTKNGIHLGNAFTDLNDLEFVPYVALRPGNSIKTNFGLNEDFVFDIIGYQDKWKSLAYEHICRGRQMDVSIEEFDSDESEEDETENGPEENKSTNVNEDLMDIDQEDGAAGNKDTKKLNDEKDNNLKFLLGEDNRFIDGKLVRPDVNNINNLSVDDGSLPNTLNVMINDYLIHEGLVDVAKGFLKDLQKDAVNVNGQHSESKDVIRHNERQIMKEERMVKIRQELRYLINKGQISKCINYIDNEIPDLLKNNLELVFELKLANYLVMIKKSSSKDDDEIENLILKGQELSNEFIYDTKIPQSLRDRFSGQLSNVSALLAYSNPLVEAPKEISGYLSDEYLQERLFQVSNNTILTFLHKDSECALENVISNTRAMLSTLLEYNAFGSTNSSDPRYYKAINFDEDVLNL
# B1: Gid5 (protein, UniProt P40547 1-921)
# chain: MTVAYSLENLKKISNSLVGDQLAKVDYFLAPKCQIFQCLLSIEQSDGVELKNAKLDLLYTLLHLEPQQRDIVGTYYFDIVSAIYKSMSLASSFTKNNSSTNYKYIKLLNLCAGVYPNCGFPDLQYLQNGFIQLVNHKFLRSKCKIDEVVTIIELLKLFLLVDEKNCSDFNKSKFMEEEREVTETSHYQDFKMAESLEHIIVKISSKYLDQISLKYIVRLKVSRPASPSSVKNDPFDNKGVDCTRAIPKKINISNMYDSSLLSLALLLYLRYHYMIPGDRKLRNDATFKMFVLGLLKSNDVNIRCVALKFLLQPYFTEDKKWEDTRTLEKILPYLVKSFNYDPLPWWFDPFDMLDSLIVLYNEITPMNNPVLTTLAHTNVIFCILSRFAQCLSLPQHNEATLKTTTKFIKICASFAASDEKYRLLLLNDTLLLNHLEYGLESHITLIQDFISLKDEIKETTTESHSMCLPPIYDHDFVAAWLLLLKSFSRSVSALRTTLKRNKIAQLLLQILSKTYTLTKECYFAGQDFMKPEIMIMGITLGSICNFVVEFSNLQSFMLRNGIIDIIEKMLTDPLFNSKKAWDDNEDERRIALQGIPVHEVKANSLWVLRHLMYNCQNEEKFQLLAKIPMNLILDFINDPCWAVQAQCFQLLRNLTCNSRKIVNILLEKFKDVEYKIDPQTGNKISIGSTYLFEFLAKKMRLLNPLDTQQKKAMEGILYIIVNLAAVNENKKQLVIEQDEILNIMSEILVETTTDSSSNGNDSNLKLACLWVLNNLLWNSSVSHYTQYAIENGLEPGHSPSDSENPQSTVTIGYNESVAGGYSRGKYYDEPDGDDSSSNANDDEDDDNDEGDDEGDEFVRTPAAKGSTSNVQVTRATVERCRKLVEVGLYDLVRKNITDESLSVREKARTLLYHMDLLLKVK
# B2: Gid8 (protein, UniProt P40208 1-455)
# chain: MTISTLSNETTKSGSCSGQGKNGGKDFTYGKKCFTKEEWKEQVAKYSAMGELYANKTIHYPLKIQPNSSGGSQDEGFATIQTTPIEPTLPRLLLNYFVSMAYEDSSIRMAKELGFIRNNKDIAVFNDLYKIKERFHIKHLIKLGRINEAMEEINSIFGLEVLEETFNATGSYTGRTDRQQQQQQQQFDIDGDLHFKLLLLNLIEMIRSHHQQENITKDSNDFILNLIQYSQNKLAIKASSSVKKMQELELAMTLLLFPLSDSADSGSIKLPKSLQNLYSISLRSKIADLVNEKLLKFIHPRIQFEISNNNSKFPDLLNSDKKIITQNFTVYNNNLVNGSNGTKITHISSDQPINEKMSSNEVTAAANSVWLNQRDGNVGTGSAATTFHNLENKNYWNQTSELLSSSNGKEKGLEFNNYYSSEFPYEPRLTQIMKLWCWCENQLHHNQIGVPRVEN
# B3: Gid2 (protein, UniProt Q12508 1-421)
# chain: MSELLDSFETEFAKFYTDSNLEETNLQKCLDHTHEFKSQLKKLKAHLNKHIQESKPEVYNKLSDKEKQKFKRKRELIIEKLSKSQRQWDHSVKKQIKYVSQQSNRFNKSTLNKLKEFDIDSVYVNKLPKETMENVNEAIGYHILRYSIDNMPLGNKNEAFQYLKDVYGITNKESTEFIEMGQIVHDLKKGDTESCLKWCSNEMESLSSNHTALSSLKFDLYTLSAMQIVKHGNPVELYYQITQNAPLDCFRHREKELMQNVVPLLTKSLIGQPIEDIDSKVNKELKECTSLFIKEYCAAKHIFFDSPLFLIVLSGLISFQFFIKYKTIRELAHVDWTTKDELPFDVKLPDFLTHFHPIFICPVLKEETTTENPPYSLACHHIISKKALDRLSKNGTITFKCPYCPVNTSMSSTKKVRFVML
# B4: Gid9 (protein, UniProt P40492 1-516)
# chain: MAEKSIFNEPDVDFHLKLNQQLFHIPYELLSKRIKHTQAVINKETKSLHEHTAALNQIFEHNDVEHDELALAKITEMIRKVDHIERFLNTQIKSYCQILNRIKKRLEFFHELKDIKSQNSGTSHNGNNEGTRTKLIQWYQSYTNILIGDYLTRNNPIKYNSETKDHWNSGVVFLKQSQLDDLIDYDVLLEANRISTSLLHERNLLPLISWINENKKTLTKKSSILEFQARLQEYIELLKVDNYTDAIVCFQRFLLPFVKSNFTDLKLASGLLIFIKYCNDQKPTSSTSSGFDTEEIKSQSLPMKKDRIFQHFFHKSLPRITSKPAVNTTDYDKSSLINLQSGDFERYLNLLDDQRWSVLNDLFLSDFYSMYGISQNDPLLIYLSLGISSLKTRDCLHPSDDENGNQETETATTAEKEVEDLQLFTLHSLKRKNCPVCSETFKPITQALPFAHHIQSQLFENPILLPNGNVYDSKKLKKLAKTLKKQNLISLNPGQIMDPVDMKIFCESDSIKMYPT
# B5: Gid7 (protein, UniProt P25569 1-745)
# chain: MSHTNKIAYVLNNDTEETASPSSVGCFDKKQLTKLLIHTLKELGYDSAANQLLLESGGYQNESNHIQTFFKLIKTGQFHLINWQIVCSLPLAHSSPLRSEWLQRLLIPTPTPATTSLFDHMLLQLQYLQQLMSSVNSSTCSDAEIATLRNYVEIMILVNRQIFLEFFHPVTNSASHKGPHTALPVLYLRKILKNFIEIWDSLLVSNDQFLNEENIFNPETTLRELSTYLTNPKLTAQLNLERDHLIDAISKYIDPNELVPKGRLLHLLKQAIKYQQSQDIFNIIDPDDDASFSSPPHRINLLQDNFSHDLTVTFQEWKTIQDTTDEIWFLTFSPNGKYLASATSESSRGYFITVYDVEQDFKIYKTCVSLSQSVLYLMFSPDSRYLVACPFSEDVTIYDMNATSLPDASATDSFLLYPSTRLSPMDSFKLDTTTYPDDTESSASSSSRPANANSNQSRVWCCDAFHTAERAGWMVVGSPDREAIVHSLTTKESLFSLKGRTCIALGHDENISGRKSIDPAKVLYKPTSSNGNWQYVEDDETFPRVHDVKISYDDKYVLLMTHQGVIDVYDFSGFPSKEELSKQTVDPKNFLIPRIARLDVGKNMTCISLPLNTTHQGFHRQQISESQHLVLVSLQDNELQMWDYKENILIQKYFGQKQQHFIIRSCFAYGNKLVMSGSEDGKIYIWDRIRGNLVSVLSGHSTVMSNSTKPMGKNCNVVASNPADKEMFASGGDDGKIKIWKISRN
# Target: T1, Gid1-HA (S. cerevisiae)
# Assay: affinity purification with mass spectrometry
row,Binder,binding
1,B1,binds
2,B2,binds
3,B3,binds
4,B4,binds
5,B5,binds

# These are yes or no findings as the source states them, for the method shown. In cells and extracts the contact can be indirect. These calls come from enrichment with a bait or labelling near it, and not all partners need be listed. Sequences can lack the tags named with a protein.
